This passage reports binding results from publication PMC6423139.

No constants are given. Whether binding was seen depends on the method and setting. In cells and extracts the contact can be indirect. Binding calls can cover weak binding; strength is not graded here. Tags and fused reporters may be left off the sequences shown.

The assay has as its target T1, HA-tagged full-length wild-type human Rev1 (human) (UniProt Q9UBZ9).
T1 sequence: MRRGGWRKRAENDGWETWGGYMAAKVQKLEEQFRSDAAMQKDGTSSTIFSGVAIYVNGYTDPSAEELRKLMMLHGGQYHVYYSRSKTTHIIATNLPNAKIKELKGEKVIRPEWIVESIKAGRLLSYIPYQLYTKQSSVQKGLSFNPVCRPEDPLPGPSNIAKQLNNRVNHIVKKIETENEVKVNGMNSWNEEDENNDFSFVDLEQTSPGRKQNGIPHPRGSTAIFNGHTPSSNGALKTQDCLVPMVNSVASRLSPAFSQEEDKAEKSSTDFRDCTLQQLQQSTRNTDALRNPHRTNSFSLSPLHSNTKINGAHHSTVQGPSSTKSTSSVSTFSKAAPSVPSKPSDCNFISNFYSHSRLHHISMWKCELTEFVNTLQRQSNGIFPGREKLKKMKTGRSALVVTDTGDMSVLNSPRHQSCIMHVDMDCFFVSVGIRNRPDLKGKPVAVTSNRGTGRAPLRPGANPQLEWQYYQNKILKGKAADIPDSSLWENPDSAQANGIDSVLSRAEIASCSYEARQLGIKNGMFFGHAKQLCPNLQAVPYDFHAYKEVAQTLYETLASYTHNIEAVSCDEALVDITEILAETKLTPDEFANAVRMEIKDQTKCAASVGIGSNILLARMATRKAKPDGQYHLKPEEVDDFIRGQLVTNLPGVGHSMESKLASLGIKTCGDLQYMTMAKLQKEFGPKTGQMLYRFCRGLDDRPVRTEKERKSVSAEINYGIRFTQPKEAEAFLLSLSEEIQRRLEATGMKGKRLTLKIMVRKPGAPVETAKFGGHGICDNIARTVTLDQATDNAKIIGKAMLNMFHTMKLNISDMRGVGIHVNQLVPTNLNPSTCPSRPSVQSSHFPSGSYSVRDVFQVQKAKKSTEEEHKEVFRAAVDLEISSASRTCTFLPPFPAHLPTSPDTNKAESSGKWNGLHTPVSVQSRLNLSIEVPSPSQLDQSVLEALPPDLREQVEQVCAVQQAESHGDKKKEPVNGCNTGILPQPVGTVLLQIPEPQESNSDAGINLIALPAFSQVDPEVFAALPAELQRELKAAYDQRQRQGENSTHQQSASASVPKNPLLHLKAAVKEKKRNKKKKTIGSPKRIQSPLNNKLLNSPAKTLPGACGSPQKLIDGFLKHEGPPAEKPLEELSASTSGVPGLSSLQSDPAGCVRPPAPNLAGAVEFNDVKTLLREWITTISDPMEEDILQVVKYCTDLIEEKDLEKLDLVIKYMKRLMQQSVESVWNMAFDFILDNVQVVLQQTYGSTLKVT
As to the kind of experiment: co-IP; HA-tagged full-length Rev1 on anti-HA resins, extracts from transfected HEK293T cells expressing FLAG-tagged wild-type or mutant Polι; western blot. On the technique in general: In western blotting, separated proteins are transferred to a membrane and probed.
For the substance FLAG-Polι F546A/F547A (human), the binding result is on record as “no binding”.

On to FLAG-Polι K549Q/K550Q (human), for which the binding result is on record as “binds”.

Turning to FLAG-Polι K549R/K550R (human), the binding result is recorded as “binds”.

For the substance FLAG-Polι K550Q (human), the binding result is reported as “binds”.

On to FLAG-Polι K550R (human), for which the binding result is recorded as “binds”.

Take “FLAG-tagged full-length human DNA polymerase iota (Polι)”: the binding entry was “binds”.
